Drawing on publication PMC12500468, this text covers binding for one molecule.

The target of experiment [1] is T1, LZTR1-mini-TurboID-HA (LZTR1 fused to biotin ligase tagged with HA) (UniProt Q8N653).
T1 sequence: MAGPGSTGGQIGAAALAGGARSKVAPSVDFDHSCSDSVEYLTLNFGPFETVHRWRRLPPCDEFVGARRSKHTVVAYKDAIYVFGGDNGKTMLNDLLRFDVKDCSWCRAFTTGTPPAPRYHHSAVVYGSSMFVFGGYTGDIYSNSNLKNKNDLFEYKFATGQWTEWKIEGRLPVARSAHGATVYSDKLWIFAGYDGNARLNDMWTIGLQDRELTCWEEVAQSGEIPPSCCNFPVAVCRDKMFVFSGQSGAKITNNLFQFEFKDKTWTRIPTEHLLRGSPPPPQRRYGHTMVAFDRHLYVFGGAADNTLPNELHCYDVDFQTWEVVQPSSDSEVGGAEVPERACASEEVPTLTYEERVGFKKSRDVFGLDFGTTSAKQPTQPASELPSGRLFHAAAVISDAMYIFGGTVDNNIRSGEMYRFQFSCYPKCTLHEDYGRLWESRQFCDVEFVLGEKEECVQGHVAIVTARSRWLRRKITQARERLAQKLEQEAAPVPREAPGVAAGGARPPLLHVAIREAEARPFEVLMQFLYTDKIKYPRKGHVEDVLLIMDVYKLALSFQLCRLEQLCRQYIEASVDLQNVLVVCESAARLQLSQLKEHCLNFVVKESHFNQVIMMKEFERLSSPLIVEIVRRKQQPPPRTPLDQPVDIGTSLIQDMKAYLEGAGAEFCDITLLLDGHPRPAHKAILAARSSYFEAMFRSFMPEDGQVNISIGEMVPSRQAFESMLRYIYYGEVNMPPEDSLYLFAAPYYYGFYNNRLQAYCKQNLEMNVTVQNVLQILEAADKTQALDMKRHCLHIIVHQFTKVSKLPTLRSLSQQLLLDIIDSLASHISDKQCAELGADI
In words: proximity labelling; LZTR1-miniTurbo-HA or GFP-TurboID (control) induced with doxycycline in YUHIMO, YUHEF and YUSIK melanoma cells; biotin 50 uM; streptavidin magnetic beads; in-gel trypsin digestion, LC-MS/MS with label-free quantitation; enriched over control at p < 0.05; three biological replicates.

Experiment [2] deals with T1, LZTR1-mini-TurboID-HA (LZTR1 fused to biotin ligase tagged with HA). In words: proximity labelling; LZTR1-TurboID or GFP-TurboID in melanoma cells with or without doxycycline; biotin for 24 h or for 2 and 18 h; streptavidin bead-bound proteins and whole cell lysates probed by Western blot.

These are yes or no findings as the source states them, for the method shown. In cells and extracts the contact can be indirect. Here binding means that the protein was enriched with, or labelled near, the bait; the list need not be complete. Tags and fused reporters may be left off the sequences shown.

B1: GOLGA3 (golgin A3) (protein, UniProt Q08378 1-1498)
chain: MDGASAEQDGLQEDRSHSGPSSLPEAPLKPPGPLVPPDQQDKVQCAEVNRASTEGESPDGPGQGGLCQNGPTPPFPDPPSSLDPTTSPVGPDASPGVAGFHDNLRKSQGTSAEGSVRKEALQSLRLSLPMQETQLCSTDSPLPLEKEEQVRLQARKWLEEQLKQYRVKRQQERSSQPATKTRLFSTLDPELMLNPENLPRASTLAMTKEYSFLRTSVPRGPKVGSLGLPAHPREKKTSKSSKIRSLADYRTEDSNAGNSGGNVPAPDSTKGSLKQNRSSAASVVSEISLSPDTDDRLENTSLAGDSVSEVDGNDSDSSSYSSASTRGTYGILSKTVGTQDTPYMVNGQEIPADTLGQFPSIKDVLQAAAAEHQDQGQEVNGEVRSRRDSICSSVSLESSAAETQEEMLQVLKEKMRLEGQLEALSLEASQALKEKAELQAQLAALSTKLQAQVECSHSSQQRQDSLSSEVDTLKQSCWDLERAMTDLQNMLEAKNASLASSNNDLQVAEEQYQRLMAKVEDMQRSMLSKDNTVHDLRQQMTALQSQLQQVQLERTTLTSKLKASQAEISSLQSVRQWYQQQLALAQEARVRLQGEMAHIQVGQMTQAGLLEHLKLENVSLSQQLTETQHRSMKEKGRIAAQLQGIEADMLDQEAAFMQIQEAKTMVEEDLQRRLEEFEGERERLQRMADSAASLEQQLEQVKLTLLQRDQQLEALQQEHLDLMKQLTLTQEALQSREQSLDALQTHYDELQARLGELQGEAASREDTICLLQNEKIILEAALQAAKSGKEELDRGARRLEEGTEETSETLEKLREELAIKSGQVEHLQQETAALKKQMQKIKEQFLQQKVMVEAYRRDATSKDQLISELKATRKRLDSELKELRQELMQVHGEKRTAEAELSRLHREVAQVRQHMADLEGHLQSAQKERDEMETHLQSLQFDKEQMVAVTEANEALKKQIEELQQEARKAITEQKQKMRRLGSDLTSAQKEMKTKHKAYENAVGILSRRLQEALAAKEAADAELGQLRAQGGSSDSSLALHERIQALEAELQAVSHSKTLLEKELQEVIALTSQELEESREKVLELEDELQESRGFRKKIKRLEESNKKLALELEHEKGKLTGLGQSNAALREHNSILETALAKREADLVQLNLQVQAVLQRKEEEDRQMKHLVQALQASLEKEKEKVNSLKEQVAAAKVEAGHNRRHFKAASLELSEVKKELQAKEHLVQKLQAEADDLQIREGKHSQEIAQFQAELAEARAQLQLLQKQLDEQLSKQPVGNQEMENLKWEVDQKEREIQSLKQQLDLTEQQGRKELEGLQQLLQNVKSELEMAQEDLSMTQKDKFMLQAKVSELKNNMKTLLQQNQQLKLDLRRGAAKTRKEPKGEASSSNPATPIKIPDCPVPASLLEELLRPPPAVSKEPLKNLNSCLQQLKQEMDSLQRQMEEHALTVHESLSSWTPLEPATASPVPPGGHAGPRGDPQRHSQSRASKEGPGE
With B1, the binding result in experiment [1] and in experiment [2] was “binds” each time.
